From article PMC7596997
No constants are given. Whether binding was seen depends on the method and setting. Binding seen in cells or lysates may run through a third protein. Some results given as binding are weak or reduced against the parent protein; the word gives no strength. Where a sequence is shown, tags or fusion partners need not be part of it.

Target: T1, cytosolic domain of yeast Tom70 (His-Tom70_(38–617)) (yeast (Saccharomyces cerevisiae)) (UniProt P07213)
T1 sequence: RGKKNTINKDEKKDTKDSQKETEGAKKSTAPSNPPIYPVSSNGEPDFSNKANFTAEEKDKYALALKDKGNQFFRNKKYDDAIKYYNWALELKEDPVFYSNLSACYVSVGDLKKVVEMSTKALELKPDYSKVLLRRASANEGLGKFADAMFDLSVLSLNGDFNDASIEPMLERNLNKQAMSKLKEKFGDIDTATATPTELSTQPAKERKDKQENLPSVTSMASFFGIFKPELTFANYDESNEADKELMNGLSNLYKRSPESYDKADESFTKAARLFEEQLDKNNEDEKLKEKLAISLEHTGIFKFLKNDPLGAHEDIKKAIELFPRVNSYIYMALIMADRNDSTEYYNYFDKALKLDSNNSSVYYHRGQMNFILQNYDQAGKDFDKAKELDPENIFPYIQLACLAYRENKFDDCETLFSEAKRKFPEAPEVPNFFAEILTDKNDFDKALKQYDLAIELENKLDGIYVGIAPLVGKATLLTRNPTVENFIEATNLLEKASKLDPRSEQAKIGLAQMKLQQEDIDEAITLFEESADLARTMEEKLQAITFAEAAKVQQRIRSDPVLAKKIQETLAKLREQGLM
Assay: pull-down; purified His-Tom70cd (50 pmol per 100 μl) pre-bound to Ni-NTA beads, incubated 40 min at 30 °C with typically 7% (v/v) reticulocyte lysate containing the [35S]-labelled protein; 10 mM MOPS/KOH, 20 mM imidazole, 150 mM KCl, 1% BSA, pH 7.2; eluted with 1 M imidazole, SDS-PAGE, phosphorimager; in some samples the bead-bound Tom70cd was pretreated with NEM and washed before the lysate was added; only the target purified

binding: binds
B1: yeast adenine nucleotide transporter Ant1p (protein, UniProt Q06497 1-328)
chain: MLTLESALTGAVASAMANIAVYPLDLSKTIIQSQVSPSSSEDSNEGKVLPNRRYKNVVDCMINIFKEKGILGLYQGMTVTTVATFVQNFVYFFWYTFIRKSYMKHKLLGLQSLKNRDGPITPSTIEELVLGVAAASISQLFTSPMAVVATRQQTVHSAESAKFTNVIKDIYRENNGDITAFWKGLRTGLALTINPSITYASFQRLKEVFFHDHSNDAGSLSAVQNFILGVLSKMISTLVTQPLIVAKAMLQSAGSKFTTFQEALLYLYKNEGLKSLWKGVLPQLTKGVIVQGLLFAFRGELTKSLKRLIFLYSSFFLKHNGQRKLAST
